Results reported in PubChem BioAssay AID328 (DTP/NCI, 2004).
The list does not hold the whole screen: it is rich in T/C values a quarter to a half above the control, in often repeated tests (any T/C) and in doses without a T/C. Further doses and runs are listed elsewhere. T/C: endpoint of the treated group in % of that of the vehicle group. Some doses have a count of surviving animals in place of a T/C: the source holds a T/C of zero for them, seemingly a mark for toxic or unscored doses. Some doses without a T/C left all or most animals alive at the check, yet need not have been tolerated: survival well below the control is almost never listed, so the zero probably covers shortened survival too. Survivors were counted at the toxicity check, usually on the fifth day, unless a day is given; later deaths do not show. Schedule codes are those of the source, read here as Q, the interval in days (D) or hours (H), X, the number of doses. Some entries were tested several times; the results are listed from low to high. Where survival is the endpoint, this PubChem deposit counts one and a half times the control or more as active, and values a quarter to a half above the control carry no call in these data; other NCI protocols may use other cut-offs. Some T/C values are followed by the survivors on the day toxicity was checked, most often the fifth; where none is given, no animal had died by that day. Additions like (4×) stand for listed records that agree.

System: BDF1 mice, P388 leukemia ip, median survival T/C
Test: NCI In Vivo Anticancer Drug Screen. Data for tumor model P388 Leukemia (intraperitoneal) in B6D2F1 (BDF1) mice
Details: T/C endpoint: median survival time, higher T/C = longer survival
Outline: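 Survival ratio, drug arm over vehicle arm, in mice with a transplanted tumour.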

[1] = dose: 50.0 mg/kg/injection, schedule: Q01DX001 (ip), vehicle: Klucel (hydroxypropylcellulose) (HPC)
[2] = dose: 100.0 mg/kg/injection, schedule: Q01DX001 (ip), vehicle: Klucel (hydroxypropylcellulose) (HPC)

## CC(=O)NNC(=O)c1ccccn1
dose: 25.0 mg/kg/injection, schedule: Q01DX005 (ip), vehicle: Klucel (hydroxypropylcellulose) (HPC), evaluated on day 30
  T/C: 88, 90, 91, 92, 94 (2×), 96 (2×), 97 (2×), 98, 100 (2×), 101 (2×), 103 (2×), 105 (2×), 106 (3×), 107 (2×), 109, 115, 116, 117 (2×), 133 % of control
dose: 25.0 mg/kg/injection, schedule: Q01DX005 (ip), vehicle: Klucel (hydroxypropylcellulose) (HPC), evaluated on day 35
  T/C: 105 and 110 % of control
dose: 25.0 mg/kg/injection, schedule: Q01DX005 (ip), vehicle: Klucel (hydroxypropylcellulose) (HPC)
  survivor count: 6 of 6
dose: 25.0 mg/kg/injection, schedule: Q01DX009 (ip), vehicle: Klucel (hydroxypropylcellulose) (HPC), evaluated on day 30
  T/C: 90 (2×), 92, 93, 94, 95 (2×), 96 (3×), 97 (2×), 100 (4×), 102 (2×), 104 (2×), 105, 106 (2×), 107, 109, 110, 113, 114, 115, 120, 121, 123, 128, 139 % of control
dose: 25.0 mg/kg/injection, schedule: Q01DX009 (ip), vehicle: Klucel (hydroxypropylcellulose) (HPC), evaluated on day 35
  T/C: 92 % of control
dose: 25.0 mg/kg/injection, schedule: Q01DX009 (ip), vehicle: Klucel (hydroxypropylcellulose) (HPC)
  survivor count: 3 of 3
[1]
  T/C: 95, 98, 99 (4×), 100 (2×), 101 (2×), 102 (2×), 103, 104 (2×), 106 (3×), 107 (4×), 108, 109, 110, 115, 117, 119 % of control
  survivor count: 6 of 6
dose: 50.0 mg/kg/injection, schedule: Q01DX005 (ip), vehicle: Klucel (hydroxypropylcellulose) (HPC), evaluated on day 30
  T/C: 87, 93, 94, 95, 96 (2×), 97, 98 (2×), 99, 100 (4×), 101 (3×), 102 (2×), 104 (2×), 105 (2×), 106 (2×), 108, 112, 114, 117, 121, 136 % of control
dose: 50.0 mg/kg/injection, schedule: Q01DX005 (ip), vehicle: Klucel (hydroxypropylcellulose) (HPC), evaluated on day 35
  T/C: 96 and 103 % of control
dose: 50.0 mg/kg/injection, schedule: Q01DX009 (ip), vehicle: Klucel (hydroxypropylcellulose) (HPC), evaluated on day 30
  T/C: 90, 92 (2×), 94 (3×), 95, 96 (2×), 97 (4×), 98 (2×), 100 (5×), 105, 106 (4×), 107 (2×), 111, 114, 115, 118, 119 % of control (2×)
dose: 50.0 mg/kg/injection, schedule: Q01DX009 (ip), vehicle: Klucel (hydroxypropylcellulose) (HPC), evaluated on day 35
  T/C: 93 % of control
dose: 50.0 mg/kg/injection, schedule: Q01DX009 (ip), vehicle: Klucel (hydroxypropylcellulose) (HPC)
  survivor count: 2 of 3 and 6 of 6
dose: 50.0 mg/kg/injection, schedule: Q04DX002 (ip), vehicle: Klucel (hydroxypropylcellulose) (HPC), evaluated on day 30
  T/C: 87, 90, 92, 94 (3×), 96, 97 (2×), 98 (4×), 100, 101 (3×), 103, 103 [2 of 3 alive], 104 (2×), 112, 115 (2×), 116, 119, 120 (2×), 126 % of control
dose: 50.0 mg/kg/injection, schedule: Q04DX002 (ip), vehicle: Klucel (hydroxypropylcellulose) (HPC), evaluated on day 35
  T/C: 94 % of control
dose: 50.0 mg/kg/injection, schedule: Q04DX002 (ip), vehicle: Klucel (hydroxypropylcellulose) (HPC)
  survivor count: 3 of 3
dose: 50.0 mg/kg/injection, schedule: Q04DX003 (ip), vehicle: Klucel (hydroxypropylcellulose) (HPC), evaluated on day 30
  T/C: 87, 95 (2×), 96 (2×), 97, 98, 99, 100 (5×), 101 (3×), 102, 103 (5×), 104 (2×), 106, 112, 120, 123, 125 % of control
dose: 50.0 mg/kg/injection, schedule: Q04DX003 (ip), vehicle: Klucel (hydroxypropylcellulose) (HPC), evaluated on day 35
  T/C: 109 % of control
dose: 50.0 mg/kg/injection, schedule: Q04DX003 (ip), vehicle: Klucel (hydroxypropylcellulose) (HPC)
  survivor count: 3 of 3 and 6 of 6
[2]
  T/C: 92, 94 (2×), 95 (3×), 97, 98, 99 (3×), 100 (3×), 101 (2×), 102 (3×), 104, 106, 108 (2×), 110, 111, 112, 115, 117, 118 % of control
  survivor count: 6 of 6
dose: 100.0 mg/kg/injection, schedule: Q01DX005 (ip), vehicle: Klucel (hydroxypropylcellulose) (HPC), evaluated on day 30
  T/C: 86, 91, 92, 93 (2×), 94 (2×), 96 (2×), 97, 100 (2×), 101 (2×), 102, 104, 105, 107, 108, 110, 112 (3×), 113, 114, 116, 123, 124, 131, 152 % of control
dose: 100.0 mg/kg/injection, schedule: Q01DX005 (ip), vehicle: Klucel (hydroxypropylcellulose) (HPC), evaluated on day 35
  T/C: 88 and 110 % of control
dose: 100.0 mg/kg/injection, schedule: Q01DX005 (ip), vehicle: Klucel (hydroxypropylcellulose) (HPC)
  survivor count: 3 of 3
dose: 100.0 mg/kg/injection, schedule: Q01DX009 (ip), vehicle: Klucel (hydroxypropylcellulose) (HPC), evaluated on day 30
  T/C: 86, 87 (2×), 88, 89, 90, 92, 92 [2 of 3 alive], 93, 94, 95, 96, 97 (2×), 98 (2×), 99, 100 (4×), 102 (2×), 103 (2×), 107, 111, 116 (2×), 118, 121, 122, 123, 128 % of control
dose: 100.0 mg/kg/injection, schedule: Q01DX009 (ip), vehicle: Klucel (hydroxypropylcellulose) (HPC), evaluated on day 35
  T/C: 99 % of control
dose: 100.0 mg/kg/injection, schedule: Q01DX009 (ip), vehicle: Klucel (hydroxypropylcellulose) (HPC)
  survivor count: 3 of 3
dose: 100.0 mg/kg/injection, schedule: Q01DX009 (ip), vehicle: water
  T/C: 136 % of control [5 of 6 alive]
dose: 100.0 mg/kg/injection, schedule: Q04DX002 (ip), vehicle: Klucel (hydroxypropylcellulose) (HPC), evaluated on day 30
  T/C: 91 (2×), 94, 95, 96 (2×), 98, 99 (3×), 100 (2×), 101 (3×), 103, 104, 106, 107 (3×), 109, 110, 112 (2×), 114 (2×), 115, 116 % of control
dose: 100.0 mg/kg/injection, schedule: Q04DX002 (ip), vehicle: Klucel (hydroxypropylcellulose) (HPC), evaluated on day 35
  T/C: 104 % of control
dose: 100.0 mg/kg/injection, schedule: Q04DX002 (ip), vehicle: Klucel (hydroxypropylcellulose) (HPC)
  survivor count: 3 of 3
dose: 100.0 mg/kg/injection, schedule: Q04DX003 (ip), vehicle: Klucel (hydroxypropylcellulose) (HPC), evaluated on day 30
  T/C: 88, 90, 93 (3×), 94 (2×), 95, 96, 97 (3×), 98, 99 (2×), 100 (6×), 102, 103, 105, 108, 111, 112, 114, 131 % of control
dose: 100.0 mg/kg/injection, schedule: Q04DX003 (ip), vehicle: Klucel (hydroxypropylcellulose) (HPC), evaluated on day 35
  T/C: 131 % of control
